{"source": "PubChem BioAssay AID1688", "about": "(National Center for Advancing Translational Sciences (NCATS), 2009)", "note": "The campaign covered roughly 220,000 compounds. About 2,400 (1.1%) were called active. The inconclusive results got no clear call from the source; some entries with a clear call stand among them for comparison. Calls follow the shape of the dose curve; as a rule, active = well fitted inhibition curve with a large enough effect; inconclusive = small, poorly fitted or top-dose-only effect, or effect the other way; inactive = no such curve, though single readings can be large or run the other way. A potency beside an inconclusive call is a rough fit, not a confirmed value. Peptide text beside a SMILES is read from it. * marks the point of attachment. Boc = CC(C)(C)OC(=O)*; OBn = c1ccc(CO*)cc1", "data": [{"assay": "qHTS Multiplex Assay to Identify Dual Action Probes in a Cell Model of Huntington: Aggregate Formation (GFP); also: nearly all actives have a fitted effect of over 60% in size; also: potency is read from the fitted curve at half-maximal effect; as to activity change, negative = inhibition: % is scaled to controls: 0 for no effect and ±100 for the full control effect", "conditions": "PC12 HttQ103-GFP aggregates, Acumen cytometry, 40 h; activity change, negative = inhibition: at 46.1 µM (top of the series) unless noted", "outline": "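Using laser scanning cytometry, GFP-positive aggregates were counted after lysis of PC12 cells induced with 100 nM tebufenozide to express HTT exon 1 Q103–GFP. Compounds were tested in titration.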", "values": [{"smiles": "CCN1/C(=C/c2ccc3cc(C)cc(C)c3[n+]2CC)Sc2cc(C)ccc21", "Potency": "inconclusive: 3.98 µM [inhibitor, full curve]"}, {"smiles": "O=C(CSc1nnc(NC(=O)c2ccco2)s1)NCc1ccc2c(c1)OCO2", "Potency": "inconclusive: 1.58 µM [activator, partial curve]"}, {"smiles": "COc1ccc(OC)c(C(=O)N2CCC(C(=O)c3ccc(F)cc3)CC2)c1", "Potency": "inconclusive: 5.62 µM [inhibitor, full curve, poor fit]"}, {"smiles": "CC(C)c1ccc(CN2CC(C(=O)O)CC2=O)cc1", "note": "(stereo not drawn)", "activity change, negative = inhibition": "inactive: -5.03%"}, {"smiles": "COc1ccc(-c2nn(-c3ccccc3)cc2/C=C(/C#N)C(N)=O)cc1[N+](=O)[O-]", "Potency": "inconclusive: 20 µM [activator, single point]"}, {"smiles": "Cc1ccc(-c2csc(/C(C#N)=C(\\O)CCl)n2)cc1", "activity change, negative = inhibition": "inactive: -14.2%"}, {"smiles": "Nc1ccc(C(=O)n2c3ccccc3c3ccccc32)cc1", "Potency": "inconclusive: 2.82 µM [inhibitor, partial curve]"}, {"smiles": "O=C(NCc1nc2ccccc2[nH]1)C1=C[C@H](C2CC2)C[C@H](OCc2ccc(CO)cc2)O1", "Potency": "inconclusive: 3.16 µM [activator, single point]"}, {"smiles": "COc1ccc(C2=NN3C(=O)c4c(ccc(OC)c4OC)C3C2)cc1", "note": "(stereo not drawn)", "Potency": "inconclusive: 1.26 µM [activator, single point]"}, {"smiles": "CCCCCCC(=O)Nc1nc(C)c(-c2csc(Nc3ccccc3OC)n2)s1", "Potency": "inconclusive: 5.62 µM [inhibitor, single point]"}, {"smiles": "CCc1ccc(S(=O)(=O)/N=C2/C=C(Sc3ncn[nH]3)C(=O)c3ccccc32)cc1", "Potency": "active: 3.55 µM"}, {"smiles": "CS(=O)(=O)N(CC(=O)Nc1ccc(CC#N)cc1)c1ccc(C23CC4CC(CC(C4)C2)C3)cc1", "Potency": "active: 22.4 µM"}, {"smiles": "Cc1cccc(NS(=O)(=O)c2cc(C(=O)NCCC3=CCCCC3)ccc2Cl)c1", "Potency": "inconclusive: 35.5 µM [inhibitor, single point]"}, {"smiles": "NC(=O)NC(=O)COC(=O)c1ccc(Cl)c(S(=O)(=O)N(Cc2ccccc2)c2ccc(Cl)cc2)c1", "Potency": "inconclusive: 35.5 µM [activator, partial curve]"}, {"smiles": "Cc1ccc(NC(=O)CSc2nc3nc(C)cc(C)c3c(=O)[nH]2)cc1", "Potency": "inconclusive: 11.2 µM [activator, partial curve]"}, {"smiles": "CCC(C)Sc1nc2c(c(=O)[nH]1)C(c1cccs1)C1=C(CCCC1=O)N2", "note": "(stereo not drawn)", "Potency": "inconclusive: 5.01 µM [activator, single point]"}, {"smiles": "Cc1cc(C)c2nc(NCCCNC(=S)NCCCN(C)C)c(C#N)cc2c1", "Potency": "inconclusive: 20 µM [inhibitor, single point]"}, {"smiles": "Cc1cccc(NC(=O)c2n[nH]c([N+](=O)[O-])c2Br)c1C", "Potency": "inconclusive: 25.1 µM [inhibitor, single point]"}, {"smiles": "Cc1cc(C)nc(SCc2cc(=O)c(OC(=O)c3cccc([N+](=O)[O-])c3)co2)n1", "activity change, negative = inhibition": "inactive: -5.5%"}, {"smiles": "CCn1c(C)c(CS(=O)(=O)c2ccccc2)[nH]c1=O", "Potency": "inconclusive: 35.5 µM [inhibitor, single point]"}, {"smiles": "COc1ccc(-c2cc(-c3c(O)c(OC)c4occc4c3OC)[nH]n2)cc1OC", "Potency": "inconclusive: 10 µM [inhibitor, single point]"}, {"smiles": "COc1cccc(C2C3=C(N=c4s/c(=C\\c5ccccc5O)c(=O)n42)c2ccccc2CC3)c1OC", "note": "(stereo not drawn)", "activity change, negative = inhibition": "inactive: -0.946%"}, {"smiles": "COc1ccc(-c2nc3ccccc3n2Cc2ccc(C)cc2)cc1", "Potency": "inconclusive: 35.5 µM [inhibitor, single point]"}, {"smiles": "C=CCOc1c(Br)cc(CNc2ccc3[nH]c(=O)[nH]c3c2)cc1OCC", "Potency": "inconclusive: 7.94 µM [activator, partial curve]"}, {"smiles": "Cc1cc(O)c(C(=O)c2ccccc2C(=O)O)cc1C", "activity change, negative = inhibition": "inactive: -3.08%"}, {"smiles": "CCCCCCCCC(=O)NNC(=O)c1c(O)c2ccccc2n(CCC)c1=O", "Potency": "inconclusive: 35.5 µM [inhibitor, single point]"}, {"smiles": "COc1ccc(-n2c(-c3ccco3)n[nH]c2=S)cc1", "activity change, negative = inhibition": "inactive: 5.43%"}, {"smiles": "COCCNC(=O)c1ccc2c(c1)CCN2S(C)(=O)=O", "Potency": "inconclusive: 3.16 µM [inhibitor, single point]"}, {"smiles": "CC(C)(C)OC(=O)NCC(=O)NCC(=O)OCc1ccccc1", "note": "(Boc-Gly-Gly-OBn)", "Potency": "inconclusive: 0.891 µM [activator, single point]"}, {"smiles": "CCOC(=O)c1c(C)nc(C)c(C(=O)OCC)c1-c1ccc(Br)cc1", "Potency": "inconclusive: 5.62 µM [inhibitor, single point]"}, {"smiles": "Nc1nc(CN2CCc3ccccc3C2)nc(Nc2ccccc2)n1", "Potency": "inconclusive: 35.5 µM [activator, single point]"}, {"smiles": "Cc1cccc(CN2CCN(C(=O)CCl)CC2)c1", "Potency": "inconclusive: 12.6 µM [inhibitor, partial curve]"}, {"smiles": "O=C(CCCn1c(=O)[nH]c2cc(Cl)ccc2c1=O)NCCN1CCN(c2ccccc2)CC1", "Potency": "inconclusive: 35.5 µM [inhibitor, single point]"}, {"smiles": "CCn1c(COc2ccc(Cl)cc2)nnc1SCc1ccc(C#N)cc1", "Potency": "inconclusive: 1.26 µM [inhibitor, single point]"}, {"smiles": "Cc1nc2sccn2c1-c1csc(NCc2ccccc2)n1", "Potency": "active: 7.08 µM"}, {"smiles": "CC(C)(C)C1CCc2c(sc(NC(=O)CSc3ncn[nH]3)c2C#N)C1", "note": "(stereo not drawn)", "Potency": "inconclusive: 22.4 µM [inhibitor, partial curve]"}, {"smiles": "Cc1cc(NC(=O)C(=O)NCc2cccc(Cl)c2)no1", "activity change, negative = inhibition": "inactive: -14.4% [at 9.22 µM]"}, {"smiles": "Cc1ccc(O)c(-c2cc(-c3ccccc3C)[nH]n2)c1", "activity change, negative = inhibition": "inactive: 3.58%"}, {"smiles": "Cc1cc(C(=O)Nc2cccc3cccnc23)ccc1[N+](=O)[O-]", "Potency": "inconclusive: 10 µM [activator, partial curve]"}, {"smiles": "Cc1ccc(S(=O)(=O)C2(C(=O)Nc3ccc(C(C)C)cc3)CC2)cc1", "activity change, negative = inhibition": "inactive: -14.3%"}, {"smiles": "C=CCn1c(SCC(=O)NC2CCCC2)nc2scc(-c3ccco3)c2c1=O", "Potency": "inconclusive: 31.6 µM [inhibitor, partial curve]"}, {"smiles": "Cc1onc(-c2ccccc2)c1C(=O)NC(=S)NNC(=O)c1cc(-c2ccc(F)cc2)n[nH]1", "activity change, negative = inhibition": "inactive: -5.88% [at 9.22 µM]"}, {"smiles": "CC(=O)/C(N)=N/Nc1cccc(Cl)c1", "activity change, negative = inhibition": "inactive: 9.83%"}, {"smiles": "COc1ccc(S(=O)(=O)NCCSCc2cccs2)cc1", "Potency": "inconclusive: 35.5 µM [inhibitor, single point]"}, {"smiles": "COc1ccc(-c2c/c(=N\\c3nc(-c4ccccc4)c(C)s3)c3ccccc3o2)cc1O", "Potency": "inconclusive: 2.82 µM [inhibitor, full curve]"}, {"smiles": "Cc1ccc(NC(=O)CCC(=O)OCC(=O)c2ccc(Oc3ccc([N+](=O)[O-])cc3)cc2)cc1", "activity change, negative = inhibition": "inactive: 4.45%"}, {"smiles": "O=C(N/N=C/c1ccc(OCc2ccccc2)cc1)c1cccs1", "Potency": "inconclusive: 3.16 µM [inhibitor, single point]"}, {"smiles": "COc1ccc(-c2cc(C3CCN(c4ncccc4[N+](=O)[O-])CC3)[nH]n2)cc1", "Potency": "inconclusive: 15.8 µM [inhibitor, single point]"}, {"smiles": "CCC/C=N/NC(=O)c1cc(Br)ccc1O", "Potency": "active: 15.8 µM"}, {"smiles": "O=C(CSCc1ccc(Cl)cc1)N1CCN(Cc2ccc3c(c2)OCO3)CC1", "Potency": "inconclusive: 14.1 µM [inhibitor, single point]"}, {"smiles": "COC(=O)c1sccc1NC(=O)CSc1ccccc1N", "activity change, negative = inhibition": "inactive: 3.52%"}, {"smiles": "C[C@]12CC[C@@H]3c4ccc(O)cc4CC[C@H]3[C@@H]1CCC2OC(=O)CCC1CCCC1", "note": "(stereo partly drawn)", "activity change, negative = inhibition": "inactive: -11.3%"}, {"smiles": "O=[N+]([O-])c1ccccc1/C=C/C=N/n1c(-c2cc(-c3ccccc3)n[nH]2)n[nH]c1=S", "activity change, negative = inhibition": "inactive: -13.2% [at 9.22 µM]"}, {"smiles": "CCOc1ccc(/C=C/C(=O)c2cc(Br)ccc(=O)c2O)cc1", "Potency": "inconclusive: 22.4 µM [inhibitor, partial curve]"}, {"smiles": "Cc1ccc(NC(=O)c2cc3c(s2)CCC3)cc1S(=O)(=O)N1CCOCC1", "Potency": "inconclusive: 35.5 µM [inhibitor, single point]"}, {"smiles": "CC(C)(C)c1ccc(NC(=O)COC(=O)c2ccc(NS(=O)(=O)c3ccc(F)c(F)c3)cc2)cc1", "activity change, negative = inhibition": "inactive: -19.6%"}, {"smiles": "O=C(NC1CCCCC1)C(c1ccc(F)cc1)N(Cc1ccco1)C(=O)CN1C(=O)c2ccccc2S1(=O)=O", "note": "(stereo not drawn)", "Potency": "active: 22.4 µM"}, {"smiles": "COc1ccc(-c2cc(C3CCN(c4ccc(C(C)=O)cc4[N+](=O)[O-])CC3)[nH]n2)cc1", "Potency": "inconclusive: 25.1 µM [inhibitor, single point]"}, {"smiles": "Cc1nc([N+](=O)[O-])c(Sc2nc3ccccc3n2C)n1Cc1ccccc1", "Potency": "active: 10 µM"}, {"smiles": "Cc1cccn2c(=O)c3cc(C(=O)N(C)C)n(C)c3nc12", "Potency": "inconclusive: 10 µM [activator, partial curve]"}, {"smiles": "CCC(C)NC(=O)CSc1nc(-c2cccs2)cc(C(F)(F)F)n1", "note": "(stereo not drawn)", "Potency": "active: 12.6 µM"}, {"smiles": "O=C1CC(=O)N(Cc2ccco2)C(=O)N1", "activity change, negative = inhibition": "inactive: -2.24%"}, {"smiles": "Cc1nnc(Sc2cc(NCCO)c([N+](=O)[O-])c3nonc23)s1", "Potency": "inconclusive: 35.5 µM [inhibitor, single point]"}, {"smiles": "Cc1nn(Cc2ccc(C(=O)N3N=C(C(F)F)CC3(O)C(F)F)o2)c(C)c1[N+](=O)[O-]", "note": "(stereo not drawn)", "Potency": "inconclusive: 14.1 µM [activator, single point]"}, {"smiles": "O=C(COc1ccc([N+](=O)[O-])cc1)NNC(=S)NC(=O)c1ccc(Br)cc1", "activity change, negative = inhibition": "inactive: -3.58%"}, {"smiles": "C[C@@H]1C[C@@H]2OC(=O)[C@]3(C)[C@H]2[C@@H](OC3(C)O)[C@]2(C)C(=O)C=C[C@H]12", "note": "(stereo partly drawn)", "activity change, negative = inhibition": "inactive: 32.3% [at 9.22 µM]"}, {"smiles": "O=C(N/N=C/c1ccccn1)c1cc(-c2ccccc2Cl)n[nH]1", "Potency": "inconclusive: 12.6 µM [inhibitor, single point]"}, {"smiles": "S=C(Nc1ccccc1)Nc1ccc(Cl)cc1Cl", "Potency": "inconclusive: 35.5 µM [inhibitor, single point]"}]}]}
